No constants are given. Whether binding was seen depends on the method and setting. Some entries that bind do so weakly or less than the wild type. For some assays here: Tags and fused reporters may be left off the sequences shown.
Assays:
[1] = biological target: T1, TMEM149 as arrayed on the secreted protein microarray (Genentech SPDI library) (human) (UniProt Q9H665); experiment: protein microarray of ~700 secreted or transmembrane proteins probed with Cy-5 labelled IGFL1 (20 ug/ml)
T1 sequence: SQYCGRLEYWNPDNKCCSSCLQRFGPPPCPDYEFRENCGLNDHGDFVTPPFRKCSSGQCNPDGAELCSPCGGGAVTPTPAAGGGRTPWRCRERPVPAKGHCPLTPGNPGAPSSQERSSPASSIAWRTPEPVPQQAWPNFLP

Amino acid sequences for entries named in this document (tags omitted). A change or cut given only in a name is not applied to a line headed by its entry.
UniProt Q6UW32: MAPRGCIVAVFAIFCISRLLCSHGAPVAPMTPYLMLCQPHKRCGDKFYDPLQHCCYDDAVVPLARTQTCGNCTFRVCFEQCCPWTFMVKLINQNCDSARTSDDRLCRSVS
UniProt Q6UXB1: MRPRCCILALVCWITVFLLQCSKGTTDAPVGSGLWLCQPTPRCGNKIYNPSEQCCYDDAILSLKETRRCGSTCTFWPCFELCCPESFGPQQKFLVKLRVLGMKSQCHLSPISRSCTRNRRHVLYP

[2] = biological target: T1, TMEM149 as arrayed on the secreted protein microarray (Genentech SPDI library) (human); experiment: protein microarray probed with fluorescently labelled FLAG-IGFL1
[3] = biological target: T2, Human TMEM149-GFP on transfected HEK293T cells (human) (UniProt Q9H665); experiment: flow cytometry of HEK293T cells transfected with TMEM149-GFP, FLAG-IGFL1 at 10 µg/ml, fluorescent anti-FLAG
T2 sequence: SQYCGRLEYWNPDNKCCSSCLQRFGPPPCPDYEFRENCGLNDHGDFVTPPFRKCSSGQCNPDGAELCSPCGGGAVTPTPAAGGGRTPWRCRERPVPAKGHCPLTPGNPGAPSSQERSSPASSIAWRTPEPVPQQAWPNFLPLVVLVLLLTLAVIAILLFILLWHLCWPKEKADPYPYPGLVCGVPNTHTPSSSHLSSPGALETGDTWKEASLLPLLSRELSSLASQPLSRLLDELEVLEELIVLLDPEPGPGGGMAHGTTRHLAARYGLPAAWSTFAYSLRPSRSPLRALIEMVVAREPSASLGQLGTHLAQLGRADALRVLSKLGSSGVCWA

[4] = biological target: T1, TMEM149 as arrayed on the secreted protein microarray (Genentech SPDI library) (human); experiment: protein microarray (SPDI library), fluorescently labelled probe at 20 µg/ml, intensity at 635 nm normalised to the slide average
[5] = biological target: T2, Human TMEM149-GFP on transfected HEK293T cells (human); experiment: flow cytometry of HEK293T cells transfected with TMEM149-GFP, FLAG-IGFL3 (as Example 14, 10 µg/ml), fluorescent anti-FLAG

Substance	binding [1]	binding [2]	binding [3]	binding [4]	binding [5]
FLAG-IGFL1 (recombinant human IGFL1 with FLAG epitope tag) (from UniProt Q6UW32 25-110) (ligand)	binds	binds	binds	binds	
FLAG-IGFL3 (recombinant human IGFL3 with FLAG epitope tag) (from UniProt Q6UXB1 25-125) (ligand)					binds

Source: patent US20130302347A1
